Measured data: PubChem BioAssay AID1259254 (NCATS, 2017)
Aim: 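Gene knock-downs that lead to re-replication, shown by excess G2 DNA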 (primary screen). System: human HCT116 colorectal cancer cells. Reagents: single siRNA against human genes. Duration: 3 days. Measured: 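Nuclei stained with Hoechst and imaged; cell-cycle phase assigned by DNA content; G2 share scaled per plate, non-targeting siRNA 0%, GMNN siRNA 100%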. Reading the numbers: G2 robust z-score: higher = more G2 cells, more excess DNA replication. Call rule: 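An siRNA counts as active if its G2 robust z-score lies at least 5 MADs above the screen median; here such calls match roughly 38% of GMNN control or more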.
The whole screen tested about 59,000 reagents; shown is a part drawn at random. About 1,550 of them (2.6%) were called active. 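G2 share is only a proxy for re-replication; each gene was hit by three separate siRNAs, and active genes were retested.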 Entries without a mark were called inactive. Reagents against one gene are numbered here. Further read-outs or replicates are left out here. Reagent sequences are not shown. Not given: the amount of reagent.

G2 robust z-score, by gene symbol and reagent
SPEM1 (GeneID 374768): #1 -1.06; #2 -0.499; #3 -0.0188
SFPQ (GeneID 6421): #1 2.44; #2 1; #3 -0.371
LRRCC1 (GeneID 85444): #1 -0.698; #2 0.218; #3 -0.122
SCARA5 (GeneID 286133): #1 2.85; #2 0.617; #3 -0.125
STX8 (GeneID 9482): #1 -0.781; #2 -1.27; #3 2.84
XIRP1 (GeneID 165904): #1 -0.131; #2 2.37; #3 0.329
ZSCAN16 (GeneID 80345): #1 -0.486; #2 0.206; #3 0.0951
LPIN1 (GeneID 23175): #1 -0.475; #2 -0.406; #3 -0.952
PKLR (GeneID 5313): #1 -1.23; #2 -0.0167; #3 -0.421
LINC02912 (GeneID 641384): #1 -0.757; #2 1.49; #3 0.196
TFB1M (GeneID 51106): #1 0.748; #2 3.08; #3 0.839
WBP1L (GeneID 54838): #1 -0.915; #2 -0.609; #3 1.66
RETN (GeneID 56729): #1 0.458; #2 0.105; #3 -0.722
ZNF300 (GeneID 91975): #1 -0.128; #2 1.42; #3 -0.504
MAP3K13 (GeneID 9175): #1 -0.644; #2 0.892; #3 0.147
JMY (GeneID 133746): #1 -0.914; #2 0.0797; #3 0.445
ZNF648 (GeneID 127665): #1 0.143; #2 3.68; #3 -1.12
ENTREP3 (GeneID 10712): #1 -1.7; #2 1.12; #3 -0.969
PPIAP8 (GeneID 341457): #1 -1.07; #2 -0.571; #3 0.716
CNGA3 (GeneID 1261): #1 -0.544; #2 2.41; #3 -0.132
PASK (GeneID 23178): #1 1.22; #2 0.0173; #3 -0.366
RPP38 (GeneID 10557): #1 -0.944; #2 0.307; #3 1.1
LRRC8C (GeneID 84230): #1 1.42; #2 0.22; #3 0.378

Part of the list above, set out differently:
{"gene symbol": "ZNF648 (GeneID 127665)", "reagent": 1, "G2 robust z-score": 0.143}
{"gene symbol": "ZNF648 (GeneID 127665)", "reagent": 2, "G2 robust z-score": 3.68}
{"gene symbol": "ZNF648 (GeneID 127665)", "reagent": 3, "G2 robust z-score": -1.12}
{"gene symbol": "ENTREP3 (GeneID 10712)", "reagent": 1, "G2 robust z-score": -1.7}
{"gene symbol": "ENTREP3 (GeneID 10712)", "reagent": 2, "G2 robust z-score": 1.12}
{"gene symbol": "ENTREP3 (GeneID 10712)", "reagent": 3, "G2 robust z-score": -0.969}
